Data taken from article PMC7423924 (Nature Communications, 2020).

Assay: general procedure: Fmoc solid-phase peptide synthesis; 2-chlorotrityl chloride polystyrene resin (loading: 1.6 mmol g-1); COMU, Oxyma Pure
Details: whole synthesis, scale of the general procedure 30 µmol; for final HPLC purity: 280 nm

| Substance | final HPLC purity | isolated yield |
| --- | --- | --- |
| PEPTIDE1{E.E.E.W.W.[W(BODIPY)].G}$PEPTIDE1,PEPTIDE1,1:R1-7:R2$$$V2.0 | 99% | 73% |
| PEPTIDE1{K.K.K.F.F.[W(BODIPY)].G}$PEPTIDE1,PEPTIDE1,1:R1-7:R2$$$V2.0 | 98% | 73% |
| PEPTIDE1{K.K.K.K.K.[W(BODIPY)].G}$PEPTIDE1,PEPTIDE1,1:R1-7:R2$$$V2.0 | 97% | 91% |
| PEPTIDE1{K.K.K.K.W.[W(BODIPY)].G}$PEPTIDE1,PEPTIDE1,1:R1-7:R2$$$V2.0 | 98% | 43% |
| PEPTIDE1{K.K.K.L.I.[W(BODIPY)].G}$PEPTIDE1,PEPTIDE1,1:R1-7:R2$$$V2.0 | 97% | 91% |
| PEPTIDE1{K.K.K.V.I.[W(BODIPY)].G}$PEPTIDE1,PEPTIDE1,1:R1-7:R2$$$V2.0 | 97% | 75% |
| PEPTIDE1{K.K.K.W.F.[W(BODIPY)].G}$PEPTIDE1,PEPTIDE1,1:R1-7:R2$$$V2.0 | 98% | 38% |
| PEPTIDE1{K.K.K.W.W.[W(BODIPY)].G}$PEPTIDE1,PEPTIDE1,1:R1-7:R2$$$V2.0 | 99% | 35% |
| PEPTIDE1{K.K.W.W.K.[W(BODIPY)].G}$PEPTIDE1,PEPTIDE1,1:R1-7:R2$$$V2.0 | 99% | 64% |
| PEPTIDE1{K.K.W.W.W.[W(BODIPY)].G}$PEPTIDE1,PEPTIDE1,1:R1-7:R2$$$V2.0 | 98% | 93% |
| PEPTIDE1{K.W.K.W.K.[W(BODIPY)].G}$PEPTIDE1,PEPTIDE1,1:R1-7:R2$$$V2.0 | 99% | 77% |
| PEPTIDE1{K.W.W.K.K.[W(BODIPY)].G}$PEPTIDE1,PEPTIDE1,1:R1-7:R2$$$V2.0 | 99% | 43% |
| PEPTIDE1{K.W.W.W.W.[W(BODIPY)].G}$PEPTIDE1,PEPTIDE1,1:R1-7:R2$$$V2.0 | 99% | 92% |
| PEPTIDE1{W.W.K.K.K.[W(BODIPY)].G}$PEPTIDE1,PEPTIDE1,1:R1-7:R2$$$V2.0 | 98% | 82% |
| c(RKKWFW(BODIPY)G) | 99% | 26% |

Some peptides are written in HELM: one residue between dots, names in brackets for other building blocks, links after the first $.
